Test results taken from publication doi:10.1101/2025.09.11.675682.
These are yes or no findings as the source states them, for the method shown.

Amino acid sequences for entries named in this document (tags omitted). A change or cut given only in a name is not applied to a line headed by its entry.
UniProt Q13094: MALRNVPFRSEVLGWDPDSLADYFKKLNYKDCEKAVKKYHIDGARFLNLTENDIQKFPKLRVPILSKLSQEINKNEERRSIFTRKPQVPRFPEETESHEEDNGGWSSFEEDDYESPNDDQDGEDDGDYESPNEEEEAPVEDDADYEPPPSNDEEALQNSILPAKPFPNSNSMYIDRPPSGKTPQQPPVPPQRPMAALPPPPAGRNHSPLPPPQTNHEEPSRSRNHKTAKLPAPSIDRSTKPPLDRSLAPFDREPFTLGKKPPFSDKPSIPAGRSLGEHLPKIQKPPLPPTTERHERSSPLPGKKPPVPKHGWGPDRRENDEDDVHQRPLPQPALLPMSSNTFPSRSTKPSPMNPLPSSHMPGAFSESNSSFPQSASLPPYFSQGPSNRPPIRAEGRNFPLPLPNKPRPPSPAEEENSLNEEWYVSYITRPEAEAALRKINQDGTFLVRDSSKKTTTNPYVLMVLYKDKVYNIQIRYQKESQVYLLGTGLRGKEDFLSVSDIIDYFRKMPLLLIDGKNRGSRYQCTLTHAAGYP

Target: T1, PLC-γ1 (Phospholipase C-γ1), 1–1219 (UniProt P19174)
T1 sequence: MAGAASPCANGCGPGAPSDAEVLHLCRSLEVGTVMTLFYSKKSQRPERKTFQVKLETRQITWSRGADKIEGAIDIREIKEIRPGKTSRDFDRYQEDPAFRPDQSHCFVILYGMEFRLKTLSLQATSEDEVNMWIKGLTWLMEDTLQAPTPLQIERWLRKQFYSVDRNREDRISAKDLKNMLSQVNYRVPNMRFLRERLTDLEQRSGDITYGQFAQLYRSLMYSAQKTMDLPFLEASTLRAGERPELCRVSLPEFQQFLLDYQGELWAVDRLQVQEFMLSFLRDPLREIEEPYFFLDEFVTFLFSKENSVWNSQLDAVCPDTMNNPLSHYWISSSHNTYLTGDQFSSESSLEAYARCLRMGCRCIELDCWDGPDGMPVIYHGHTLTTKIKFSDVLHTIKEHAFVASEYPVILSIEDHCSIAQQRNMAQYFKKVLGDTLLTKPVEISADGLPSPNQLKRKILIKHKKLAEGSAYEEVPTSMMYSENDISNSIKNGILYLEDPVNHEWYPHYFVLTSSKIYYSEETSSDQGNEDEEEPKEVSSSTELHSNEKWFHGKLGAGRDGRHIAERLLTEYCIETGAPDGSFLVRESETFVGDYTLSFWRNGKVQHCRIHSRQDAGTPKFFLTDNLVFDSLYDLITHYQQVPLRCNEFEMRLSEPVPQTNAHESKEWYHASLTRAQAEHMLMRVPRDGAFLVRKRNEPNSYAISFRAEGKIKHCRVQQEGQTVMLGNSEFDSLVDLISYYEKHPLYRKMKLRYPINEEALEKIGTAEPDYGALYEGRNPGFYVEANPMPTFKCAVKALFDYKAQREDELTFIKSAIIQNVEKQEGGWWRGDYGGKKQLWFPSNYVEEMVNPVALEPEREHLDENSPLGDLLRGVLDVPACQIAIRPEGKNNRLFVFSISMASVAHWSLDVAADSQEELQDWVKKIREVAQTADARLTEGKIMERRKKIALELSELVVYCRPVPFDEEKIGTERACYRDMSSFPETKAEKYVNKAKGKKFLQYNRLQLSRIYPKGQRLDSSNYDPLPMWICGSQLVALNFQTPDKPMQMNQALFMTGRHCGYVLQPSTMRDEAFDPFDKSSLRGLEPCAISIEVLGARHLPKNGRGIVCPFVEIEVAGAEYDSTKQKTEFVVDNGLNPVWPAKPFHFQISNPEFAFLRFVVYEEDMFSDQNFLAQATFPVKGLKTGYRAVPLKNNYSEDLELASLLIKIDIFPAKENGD
Experiment: ITC; VP-ITC; 5°C; 20 mM Hepes (pH 7.4), 100 mM NaCl, 0.1 mM DTT; 4 μM in the cell, 40 μM in the syringe; single binding site fit with 1:1 stoichiometry; 3 independent experiments; both purified

SLP-76^NA polypeptide (aa 103–258, no affinity mutant) (from UniProt Q13094) (domain or fragment)
binding: no binding (tested: 4 μM in the cell, 40 μM in the syringe)
